Measurements reported in the supplement of paper PMC8728848.
This is one part of the list.

Tests used:
Test in all cases: glycan array binding signal (z-score within array); higher = stronger binding
Details in all cases: glycan notation: IUPAC condensed, linker removed
Fuc(a1-2)Gal = biological target: Fuc(a1-2)Gal
Summary of the method: (§1)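 The binding signal is a Z-score computed within each array. Data were drawn from 3228 arrays in the Consortium for Functional Glycomics database, restricted to those with a known protein sequence. Scores were averaged over arrays of the same protein sequence at different concentrations or buffers, and over linkers, and negative values can be taken as non-binding.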

Fuc(a1-2)Gal(b1-3)GalNAc = biological target: Fuc(a1-2)Gal(b1-3)GalNAc
Summary of the method: as §1

[1] = biological target: Fuc(a1-2)Gal(b1-3)GalNAc(a1-3)[Fuc(a1-2)]Gal(b1-4)Glc
Summary of the method: as §1

[2] = biological target: Fuc(a1-2)Gal(b1-3)GalNAc(a1-3)[Fuc(a1-2)]Gal(b1-4)GlcNAc
Summary of the method: as §1

[3] = biological target: Fuc(a1-2)Gal(b1-3)GalNAc(b1-3)Gal
Summary of the method: as §1

[4] = biological target: Fuc(a1-2)Gal(b1-3)GalNAc(b1-3)Gal(a1-4)Gal(b1-4)Glc
Summary of the method: as §1

[5] = biological target: Fuc(a1-2)Gal(b1-3)GalNAc(b1-4)[Neu5Ac(a2-3)]Gal(b1-4)Glc
Summary of the method: as §1

Fuc(a1-2)Gal(b1-3)GlcNAc = biological target: Fuc(a1-2)Gal(b1-3)GlcNAc
Summary of the method: as §1

[6] = biological target: Fuc(a1-2)Gal(b1-3)GlcNAc(b1-2)Man(a1-3)[Fuc(a1-2)Gal(b1-3)GlcNAc(b1-2)Man(a1-6)]Man(b1-4)GlcNAc(b1-4)GlcNAc
Summary of the method: as §1

[7] = biological target: Fuc(a1-2)Gal(b1-3)GlcNAc(b1-2)Man(a1-3)[Fuc(a1-2)Gal(b1-3)GlcNAc(b1-2)Man(a1-6)]Man(b1-4)GlcNAc(b1-4)[Fuc(a1-6)]GlcNAc
Summary of the method: as §1

[8] = biological target: Fuc(a1-2)Gal(b1-3)GlcNAc(b1-3)Gal(b1-4)Glc
Summary of the method: as §1

[9] = biological target: Fuc(a1-2)Gal(b1-3)GlcNAc(b1-3)GalNAc
Summary of the method: as §1

[10] = biological target: Fuc(a1-2)Gal(b1-3)GlcNAc(b1-3)[Fuc(a1-2)Gal(b1-3)GlcNAc(b1-6)]GalNAc
Summary of the method: as §1

[11] = biological target: Fuc(a1-2)Gal(b1-3)GlcNAc(b1-3)[Gal(b1-4)GlcNAc(b1-6)]Gal(b1-4)Glc
Summary of the method: as §1

[12] = biological target: Fuc(a1-2)Gal(b1-3)GlcNAc(b1-3)[Neu5Ac(a2-6)Gal(b1-4)GlcNAc(b1-6)]Gal(b1-4)Glc
Summary of the method: as §1

[13] = biological target: Fuc(a1-2)Gal(b1-3)GlcNAc6S
Summary of the method: as §1

[14] = biological target: Fuc(a1-2)Gal(b1-3)[Fuc(a1-4)]GlcNAc
Summary of the method: as §1

[15] = biological target: Fuc(a1-2)Gal(b1-3)[Fuc(a1-4)]GlcNAc(b1-2)Man(a1-3)[Fuc(a1-2)Gal(b1-3)[Fuc(a1-4)]GlcNAc(b1-2)Man(a1-3)]Man(b1-4)GlcNAc(b1-4)GlcNAc
Summary of the method: as §1

[16] = biological target: Fuc(a1-2)Gal(b1-3)[Fuc(a1-4)]GlcNAc(b1-2)Man(a1-3)[Fuc(a1-2)Gal(b1-3)[Fuc(a1-4)]GlcNAc(b1-2)Man(a1-6)]Man(b1-4)GlcNAc(b1-4)[Fuc(a1-6)]GlcNAc(b1-4)[Fuc(a1-6)]GlcNAc
Summary of the method: as §1

[17] = biological target: Fuc(a1-2)Gal(b1-3)[Fuc(a1-4)]GlcNAc(b1-3)[Fuc(a1-3)[Gal(b1-4)]GlcNAc(b1-6)]Gal(b1-4)Glc
Summary of the method: as §1

[18] = biological target: Fuc(a1-2)Gal(b1-3)[Fuc(a1-4)]GlcNAc(b1-3)[Gal(b1-4)GlcNAc(b1-6)]Gal(b1-4)Glc
Summary of the method: as §1

Fuc(a1-2)Gal(b1-4)Glc = biological target: Fuc(a1-2)Gal(b1-4)Glc
Summary of the method: as §1

Fuc(a1-2)Gal(b1-4)Glc6S = biological target: Fuc(a1-2)Gal(b1-4)Glc6S
Summary of the method: as §1

Fuc(a1-2)Gal(b1-4)GlcNAc = biological target: Fuc(a1-2)Gal(b1-4)GlcNAc
Summary of the method: as §1

[19] = biological target: Fuc(a1-2)Gal(b1-4)GlcNAc(b1-2)Man
Summary of the method: as §1

[20] = biological target: Fuc(a1-2)Gal(b1-4)GlcNAc(b1-2)Man(a1-3)[Fuc(a1-2)Gal(b1-4)GlcNAc(b1-2)Man(a1-6)]Man(b1-4)GlcNAc(b1-4)GlcNAc
Summary of the method: as §1

[21] = biological target: Fuc(a1-2)Gal(b1-4)GlcNAc(b1-2)Man(a1-3)[Fuc(a1-2)Gal(b1-4)GlcNAc(b1-2)Man(a1-6)]Man(b1-4)GlcNAc(b1-4)[Fuc(a1-6)]GlcNAc
Summary of the method: as §1

[22] = biological target: Fuc(a1-2)Gal(b1-4)GlcNAc(b1-2)[Fuc(a1-2)Gal(b1-4)GlcNAc(b1-4)]Man(a1-3)[Fuc(a1-2)Gal(b1-4)GlcNAc(b1-2)Man(a1-6)]Man(b1-4)GlcNAc(b1-4)GlcNAc
Summary of the method: as §1

[23] = biological target: Fuc(a1-2)Gal(b1-4)GlcNAc(b1-3)Gal(b1-4)GlcNAc
Summary of the method: as §1

[24] = biological target: Fuc(a1-2)Gal(b1-4)GlcNAc(b1-3)Gal(b1-4)GlcNAc(b1-2)Man(a1-3)[Fuc(a1-2)Gal(b1-4)GlcNAc(b1-3)Gal(b1-4)GlcNAc(b1-2)Man(a1-6)]Man(b1-4)GlcNAc(b1-4)GlcNAc
Summary of the method: as §1

[25] = biological target: Fuc(a1-2)Gal(b1-4)GlcNAc(b1-3)Gal(b1-4)GlcNAc(b1-3)Gal(b1-4)GlcNAc
Summary of the method: as §1

[26] = biological target: Fuc(a1-2)Gal(b1-4)GlcNAc(b1-3)GalNAc
Summary of the method: as §1

[27] = biological target: Fuc(a1-2)Gal(b1-4)GlcNAc(b1-3)[Fuc(a1-2)Gal(b1-4)GlcNAc(b1-6)]GalNAc
Summary of the method: as §1

[28] = biological target: Fuc(a1-2)Gal(b1-4)GlcNAc(b1-3)[Fuc(a1-3)[Gal(b1-4)]GlcNAc(b1-6)]Gal(b1-4)Glc
Summary of the method: as §1

[29] = biological target: Fuc(a1-2)Gal(b1-4)GlcNAc(b1-6)GalNAc
Summary of the method: as §1

[30] = biological target: Fuc(a1-2)Gal(b1-4)GlcNAc6S
Summary of the method: as §1

[31] = biological target: Fuc(a1-2)Gal(b1-4)[Fuc(a1-3)]GlcNAc
Summary of the method: as §1

[32] = biological target: Fuc(a1-2)Gal(b1-4)[Fuc(a1-3)]GlcNAc(b1-2)Man(a1-3)[Fuc(a1-2)Gal(b1-4)[Fuc(a1-3)]GlcNAc(b1-2)Man(a1-6)]Man(b1-4)GlcNAc(b1-4)[Fuc(a1-6)]GlcNAc
Summary of the method: as §1

[33] = biological target: Fuc(a1-2)Gal(b1-4)[Fuc(a1-3)]GlcNAc(b1-2)[Fuc(a1-2)Gal(b1-4)[Fuc(a1-3)]GlcNAc(b1-4)]Man(a1-3)[Fuc(a1-2)Gal(b1-4)[Fuc(a1-3)]GlcNAc(b1-2)Man(a1-6)]Man(b1-4)GlcNAc(b1-4)GlcNAc
Summary of the method: as §1

[34] = biological target: Fuc(a1-2)Gal(b1-4)[Fuc(a1-3)]GlcNAc(b1-3)Gal(b1-4)[Fuc(a1-3)]GlcNAc
Summary of the method: as §1

[35] = biological target: Fuc(a1-2)Gal(b1-4)[Fuc(a1-3)]GlcNAc(b1-3)Gal(b1-4)[Fuc(a1-3)]GlcNAc(b1-3)Gal(b1-4)[Fuc(a1-3)]GlcNAc
Summary of the method: as §1

[36] = biological target: Fuc(a1-2)Gal(b1-4)[Fuc(a1-3)]GlcNAc(b1-3)GalNAc
Summary of the method: as §1

[37] = biological target: Fuc(a1-2)Gal(b1-4)[Fuc(a1-3)]GlcNAc(b1-3)[Neu5Ac(a2-6)Gal(b1-4)GlcNAc(b1-6)]Gal(b1-4)Glc
Summary of the method: as §1

[38] = biological target: Fuc(a1-2)Gal3S(b1-4)GlcNAc
Summary of the method: as §1

[39] = biological target: Fuc(a1-2)Gal6S(b1-3)GlcNAc
Summary of the method: as §1

B1: LlpB (Pseudomonas fluorescens) (protein)
chain: MGSSHHHHHHSSGLVPRGSHMASSGFRIILFNSANNGTAILPPRNCLVAGQYLESPSKRYKLILEADGNLRLYDNGVPIWVADSSVPYTYVDNRPNTNLVTCFYMQGSAFLVDRVGSRTWATIGDWIDGAADRAYLQVQDDGNVVVVDGVPRWARFGFTPAALPNRGVFYPDHGTGPLPSFPVWSWTF
Q: For B1, which “glycan array binding signal (z-score)” value (Fuc(a1-2)Gal) is on record?
A: -0.044

Q: What about the “glycan array binding signal (z-score)” value (Fuc(a1-2)Gal(b1-3)GalNAc) of the same binder?
A: -0.631

Q: What about the “glycan array binding signal (z-score)” value [1] of the same binder?
A: -1.67

Q: What about the “glycan array binding signal (z-score)” value [2] of the same binder?
A: -0.569

Q: What about the “glycan array binding signal (z-score)” value [3] of the same binder?
A: -0.59

Q: And the “glycan array binding signal (z-score)” value [4]?
A: -0.376

Q: What about the “glycan array binding signal (z-score)” value [5] of the same binder?
A: 0.297

Q: What about the “glycan array binding signal (z-score)” value (Fuc(a1-2)Gal(b1-3)GlcNAc) of the same binder?
A: -0.061

Q: What about the “glycan array binding signal (z-score)” value [6] of the same binder?
A: -1.16

Q: What about the “glycan array binding signal (z-score)” value [7] of the same binder?
A: -0.114

Q: And the “glycan array binding signal (z-score)” value [8]?
A: 0.091

Q: What about the “glycan array binding signal (z-score)” value [9] of the same binder?
A: 0.052

Q: And the “glycan array binding signal (z-score)” value [10]?
A: -0.412

Q: And the “glycan array binding signal (z-score)” value [11]?
A: 0.218

Q: What about the “glycan array binding signal (z-score)” value [12] of the same binder?
A: -0.611

Q: And the “glycan array binding signal (z-score)” value [13]?
A: 1.11

Q: What about the “glycan array binding signal (z-score)” value [14] of the same binder?
A: 1.05

Q: What about the “glycan array binding signal (z-score)” value [15] of the same binder?
A: -1.13

Q: What about the “glycan array binding signal (z-score)” value [16] of the same binder?
A: -0.776

Q: And the “glycan array binding signal (z-score)” value [17]?
A: -1.23

Q: And the “glycan array binding signal (z-score)” value [18]?
A: 0.129

Q: And the “glycan array binding signal (z-score)” value (Fuc(a1-2)Gal(b1-4)Glc)?
A: 0.167

Q: And the “glycan array binding signal (z-score)” value (Fuc(a1-2)Gal(b1-4)Glc6S)?
A: 0.68

Q: What about the “glycan array binding signal (z-score)” value (Fuc(a1-2)Gal(b1-4)GlcNAc) of the same binder?
A: -0.373

Q: What about the “glycan array binding signal (z-score)” value [19] of the same binder?
A: -0.348

Q: And the “glycan array binding signal (z-score)” value [20]?
A: 0.482

Q: What about the “glycan array binding signal (z-score)” value [21] of the same binder?
A: 0.033

Q: What about the “glycan array binding signal (z-score)” value [22] of the same binder?
A: -0.173

Q: And the “glycan array binding signal (z-score)” value [23]?
A: 0.485

Q: What about the “glycan array binding signal (z-score)” value [24] of the same binder?
A: 1.46

Q: And the “glycan array binding signal (z-score)” value [25]?
A: 2.58

Q: And the “glycan array binding signal (z-score)” value [26]?
A: 2.13

Q: And the “glycan array binding signal (z-score)” value [27]?
A: -0.481

Q: What about the “glycan array binding signal (z-score)” value [28] of the same binder?
A: -0.33

Q: What about the “glycan array binding signal (z-score)” value [29] of the same binder?
A: 0.91

Q: And the “glycan array binding signal (z-score)” value [30]?
A: 0.572

Q: What about the “glycan array binding signal (z-score)” value [31] of the same binder?
A: 0.594

Q: And the “glycan array binding signal (z-score)” value [32]?
A: -0.049

Q: And the “glycan array binding signal (z-score)” value [33]?
A: 1.92

Q: What about the “glycan array binding signal (z-score)” value [34] of the same binder?
A: -0.086

Q: What about the “glycan array binding signal (z-score)” value [35] of the same binder?
A: 0.051

Q: And the “glycan array binding signal (z-score)” value [36]?
A: -0.008

Q: What about the “glycan array binding signal (z-score)” value [37] of the same binder?
A: 0.032

Q: What about the “glycan array binding signal (z-score)” value [38] of the same binder?
A: -0.965

Q: What about the “glycan array binding signal (z-score)” value [39] of the same binder?
A: -0.264
